Source: PubChem BioAssay AID328 (DTP/NCI, 2004)
The list is a part of this screen's results and no random one: it gathers tests that were run many times, whatever their T/C, doses with no T/C, and many T/C values between a quarter and a half above the control. Further doses and runs are listed elsewhere. T/C gives the treated animals as a percentage of the vehicle group. Some doses have a count of surviving animals in place of a T/C: the source files T/C as zero there, which appears to mark a toxic dose or a test without result, not a measured value. Some survivor counts are full or nearly so, which does not show that the dose was tolerated: the source hardly ever lists a survival T/C far under the control, and the zero likely stands for such cases as well. Counts of survivors are from the toxicity check (mostly the fifth day) where no day follows; animals may have died later. Schedule codes are those of the source, taken here to give the interval after Q, in days (D) or hours (H), and the number of doses after X. For survival time, this PubChem deposit counts one and a half times the control or more as active, and values a quarter to a half above the control carry no call in these data; other NCI protocols may use other cut-offs. Some entries were tested several times; the values are given in rising order. Some T/C values carry the count of animals alive at the toxicity check (mostly the fifth day); without a count, all were alive then.

System: BDF1 mice, P388 leukemia ip, median survival T/C
Test: NCI In Vivo Anticancer Drug Screen. Data for tumor model P388 Leukemia (intraperitoneal) in B6D2F1 (BDF1) mice
Settings: T/C endpoint: median survival time, higher T/C = longer survival
Summary of the method: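 Read-out is survival of treated animals expressed relative to the vehicle group, as a T/C ratio.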

[1] = dose: 100.0 mg/kg/injection, schedule: Q01DX009 (ip), vehicle: saline with Tween-80
[2] = dose: 100.0 mg/kg/injection, schedule: Q04DX003 (ip), vehicle: saline
[3] = dose: 200.0 mg/kg/injection, schedule: Q04DX003 (ip), vehicle: saline

In the case of `C=C1C(=O)OC2CC(C)CCC/C(CO)=C/C(OC(=O)/C(=C/CO)CO)C12` (configuration not stated), the T/C (dose: 14.0 mg/kg/injection, schedule: Q01DX009 (ip), vehicle: saline) is reported as 125 % of control.
With `Nc1ccc(C(OC(=O)c2cc3ccccc3c(Cc3c(O)c(C(=O)OC(c4ccc(N)cc4)(c4ccc(N)cc4)c4ccc(N)cc4)cc4ccccc34)c2O)(c2ccc(N)cc2)c2ccc(N)cc2)cc1` the T/C (dose: 3.13 mg/kg/injection, schedule: Q01DX009 (ip), vehicle: saline with Tween-80) was 141 % of control, the T/C (dose: 6.25 mg/kg/injection, schedule: Q01DX009 (ip), vehicle: saline with Tween-80) was 149 % of control and the survivor count (dose: 25.0 mg/kg/injection, schedule: Q01DX009 (ip), vehicle: saline with Tween-80) was 4 of 6.
With `O=[N+]([O-])c1cccc2nonc12` the survivor count (dose: 10.0 mg/kg/injection, schedule: Q01DX009 (ip), vehicle: saline) was 1 of 7, the survivor count (dose: 20.0 mg/kg/injection, schedule: Q01DX009 (ip), vehicle: saline) was 0 of 7 and the survivor count (dose: 40.0 mg/kg/injection, schedule: Q01DX009 (ip), vehicle: saline) was 0 of 7.
In the case of `O=[N+]([O-])c1ccc(N2CCN(CCO)CC2)c2nonc12`, the survivor count (dose: 60.0 mg/kg/injection, schedule: Q01DX009 (ip), vehicle: saline with Tween-80) is reported as 6 of 7 and the survivor count (dose: 100.0 mg/kg/injection, schedule: Q04DX003 (ip), vehicle: saline with Tween-80) is reported as 4 of 7.
With `Cc1c2oc3c(C)c(N)cc(C(=O)NC4C(=O)NC(C(C)C)C(=O)N5CCCC5C(=O)N(C)CC(=O)N(C)C(C(C)C)C(=O)OC4C)c3nc-2c(C(=O)NC2C(=O)NC(C(C)C)C(=O)N3CCCC3C(=O)N(C)CC(=O)N(C)C(C(C)C)C(=O)OC2C)c(N)c1=O` (configuration not stated) the survivor count (dose: 112.5 micrograms/kg/injection, schedule: Q01DX009 (ip), vehicle: saline + alcohol) was 8 of 8, the survivor count (dose: 150.0 micrograms/kg/injection, schedule: Q01DX009 (ip), vehicle: saline + alcohol) was 8 of 8 and the survivor count (dose: 225.0 micrograms/kg/injection, schedule: Q01DX009 (ip), vehicle: saline + alcohol) was 8 of 8. The survivor count (dose: 300.0 micrograms/kg/injection, schedule: Q01DX009 (ip), vehicle: saline + alcohol) was 8 of 8, the survivor count (dose: 300.0 micrograms/kg/injection, schedule: Q04DX003 (ip), vehicle: saline + alcohol) was 8 of 8 and the survivor count (dose: 600.0 micrograms/kg/injection, schedule: Q04DX003 (ip), vehicle: saline + alcohol) was 7 of 8. For the same molecule, the survivor count (dose: 900.0 micrograms/kg/injection, schedule: Q04DX003 (ip), vehicle: saline + alcohol) was 5 of 8.
In the case of `CCC(C)(OC(C)=O)C(=O)O[C@H]1C(=O)O[C@@H]2C[C@H]3C(C)=CC(=O)[C@@H](O)[C@]3(C)[C@H]3[C@@]4(O)OC[C@]32[C@@H]1[C@@H](C)[C@H]4O` (some centres not stated), the T/C (dose: 0.5 mg/kg/injection, schedule: Q01DX009 (ip), vehicle: saline) is reported as 149 % of control, the T/C (dose: 0.63 mg/kg/injection, schedule: Q01DX009 (ip), vehicle: saline) is reported as 142 % of control [3 of 4 alive] and the T/C (dose: 1.0 mg/kg/injection, schedule: Q01DX009 (ip), vehicle: saline) is reported as 125 % of control. For the same molecule, the T/C (dose: 2.5 mg/kg/injection, schedule: Q01DX009 (ip), vehicle: saline) was 142 % of control [3 of 4 alive], the T/C (dose: 4.0 mg/kg/injection, schedule: Q01DX009 (ip), vehicle: saline) was 142 % of control and the survivor count (dose: 8.0 mg/kg/injection, schedule: Q01DX009 (ip), vehicle: saline) was 3 of 6.
With `O=C(O)/C=C\C(=O)Nc1ccccc1` the survivor count (dose: 100.0 mg/kg/injection, schedule: Q01DX009 (ip), vehicle: Klucel (hydroxypropylcellulose) (HPC)) was 6 of 6.
In the case of `COc1cc2c(cc1OC)C(c1ccc(N=Cc3ccc(Cl)c(Cl)c3)cc1)N(C(=S)Nc1cc(Cl)ccc1Cl)CC2` (configuration not stated), the survivor count [1] is reported as 6 of 6.
In the case of `Nc1cc(N)cc(Cc2ccccc2)c1`, the survivor count (dose: 400.0 mg/kg/injection, schedule: Q01DX009 (ip), vehicle: Klucel (hydroxypropylcellulose) (HPC)) is reported as 1 of 6.
In the case of `C=CCC#N`, the survivor count (dose: 50.0 mg/kg/injection, schedule: Q01DX009 (ip), vehicle: saline) is reported as 2 of 6 and the survivor count [2] is reported as 6 of 6.
For `O=C(O)CS(=O)(=O)c1ccccc1`, the survivor count (dose: 25.0 mg/kg/injection, schedule: Q01DX001 (ip), vehicle: other) was 6 of 6.
In the case of `CCOC(=O)C(F)C(Br)C(=O)OCC` (configuration not stated), the T/C [1] is reported as 130 % of control, the T/C (dose: 200.0 mg/kg/injection, schedule: Q01DX009 (ip), vehicle: saline with Tween-80) is reported as 134 % of control and the survivor count (dose: 400.0 mg/kg/injection, schedule: Q01DX009 (ip), vehicle: saline with Tween-80) is reported as 2 of 6.
With `CC(=O)Nc1ccc(N2CCN=N2)cc1` the survivor count (dose: 115.0 mg/kg/injection, schedule: Q01DX009 (ip), vehicle: Klucel (hydroxypropylcellulose) (HPC)) was 1 of 6 and the survivor count (dose: 170.0 mg/kg/injection, schedule: Q01DX009 (ip), vehicle: Klucel (hydroxypropylcellulose) (HPC)) was 6 of 6.
In the case of `CCSc1ncnc2nc[nH]c12`, the survivor count (dose: 400.0 mg/kg/injection, schedule: Q04DX003 (ip), vehicle: Klucel (hydroxypropylcellulose) (HPC)) is reported as 1 of 6.
In the case of `Cc1cc2c(oc1=O)C(=O)c1cccc(O)c1C2=O`, the T/C (dose: 1.5 mg/kg/injection, schedule: Q01DX009 (ip), vehicle: Klucel (hydroxypropylcellulose) (HPC)) is reported as 132 % of control, the T/C (dose: 2.3 mg/kg/injection, schedule: Q01DX009 (ip), vehicle: Klucel (hydroxypropylcellulose) (HPC)) is reported as 141 % of control and the T/C (dose: 3.6 mg/kg/injection, schedule: Q01DX009 (ip), vehicle: saline) is reported as 129 % of control. The T/C (dose: 5.4 mg/kg/injection, schedule: Q01DX009 (ip), vehicle: saline) was 128 % of control, the T/C (dose: 8.2 mg/kg/injection, schedule: Q01DX009 (ip), vehicle: Klucel (hydroxypropylcellulose) (HPC)) was 128 % of control and the T/C (dose: 12.0 mg/kg/injection, schedule: Q01DX009 (ip), vehicle: Klucel (hydroxypropylcellulose) (HPC)) was 127 % of control [5 of 6 alive]. For the same molecule, the T/C (dose: 18.75 mg/kg/injection, schedule: Q01DX009 (ip), vehicle: Klucel (hydroxypropylcellulose) (HPC)) was 144 % of control, the T/C (dose: 37.5 mg/kg/injection, schedule: Q01DX009 (ip), vehicle: Klucel (hydroxypropylcellulose) (HPC)) was 141 % of control and the survivor count (dose: 75.0 mg/kg/injection, schedule: Q01DX009 (ip), vehicle: Klucel (hydroxypropylcellulose) (HPC)) was 4 of 6. The survivor count (dose: 150.0 mg/kg/injection, schedule: Q01DX009 (ip), vehicle: Klucel (hydroxypropylcellulose) (HPC)) was 2 of 6 and the survivor count (dose: 300.0 mg/kg/injection, schedule: Q01DX009 (ip), vehicle: Klucel (hydroxypropylcellulose) (HPC)) was 0 of 6.
With `CSc1sc2ccccc2[n+]1C` the survivor count (dose: 200.0 mg/kg/injection, schedule: Q01DX009 (ip), vehicle: saline) was 1 of 6.
For `CC[C@H]1CN2CCc3cc(OC)c(OC)cc3[C@@H]2C[C@@H]1C[C@H]1NCCc2c1[nH]c1ccc(OC)cc21`, the T/C (dose: 4.0 mg/kg/injection, schedule: Q04DX003 (ip), vehicle: saline) was 132 % of control, the T/C (dose: 8.0 mg/kg/injection, schedule: Q04DX003 (ip), vehicle: saline) was 145 % of control and the T/C (dose: 10.8 mg/kg/injection, schedule: Q04DX003 (ip), vehicle: acid diluted with saline) was 141 % of control. The survivor count (dose: 50.0 mg/kg/injection, schedule: Q04DX003 (ip), vehicle: acid diluted with saline) was 6 of 8.
For `NC(CSC(c1ccccc1)(c1ccccc1)c1ccc(CO)cc1)C(=O)O` (configuration not stated), the T/C (dose: 35.0 mg/kg/injection, schedule: Q01DX009 (ip), vehicle: Klucel (hydroxypropylcellulose) (HPC)) was 145 % of control, the T/C [2] was 125 % of control and the T/C [3] was 125 % of control.
In the case of `CCC(C)P(=O)(N1CC1)N1CC1` (configuration not stated), the survivor count (dose: 37.5 mg/kg/injection, schedule: Q04DX003 (ip), vehicle: saline) is reported as 2 of 6, the survivor count [2] is reported as 0 of 6 and the survivor count [3] is reported as 0 of 6. For the same molecule, the survivor count (dose: 400.0 mg/kg/injection, schedule: Q04DX003 (ip), vehicle: saline) was 0 of 6.
In the case of `C=C(C)C(=O)O[C@H]1CC2=CC(CC(C)=C[C@H]3OC(=O)C(=C)C13)OC2=O` (some centres not stated), the T/C (dose: 25.0 mg/kg/injection, schedule: Q01DX001 (ip), vehicle: saline with Tween-80) is reported as 131 % of control and the T/C (dose: 100.0 mg/kg/injection, schedule: Q01DX001 (ip), vehicle: saline with Tween-80) is reported as 125 and 134 % of control.
`CO[C@H]1OC(=O)C=C2C1=C[C@H]1OC(=O)[C@@]3(C)CCC[C@@]2(C)[C@@H]13` was tested, and the survivor count (dose: 50.0 mg/kg/injection, schedule: Q01DX009 (ip), vehicle: Klucel (hydroxypropylcellulose) (HPC)) was 3 of 3.
`COc1cc2c(cc1OC)-c1ccc3cc4c(cc3c1N(C)C2)OCO4` was tested, and the T/C (dose: 20.0 mg/kg/injection, schedule: Q01DX009 (ip), vehicle: other) was 131 % of control and the T/C (dose: 80.0 mg/kg/injection, schedule: Q01DX009 (ip), vehicle: other) was 141 % of control.
